Experimental data taken from patent publication US20190271710A1.
Results are given in words; binding and its absence hold for the method and conditions named. For some of these results: A result given as binding can be weak or reduced; the word gives no strength.

What was measured:
[1] = target: tau in Common Marmoset CSF (Common Marmoset (Callithrix jacchus)); assay: Simoa sandwich assays on Common Marmoset CSF at various dilutions
[2] = target: tau in Cynomolgus Macaque CSF (Cynomolgus Macaque (Macaca fascicularis)); assay: Simoa sandwich assays on Cynomolgus Macaque CSF at various dilutions

binding [1] | binding [2] | Binder
binds | no binding | pT3 mouse monoclonal antibody (antibody, V domains shown) VH: EVKLVESGGDLVKPGGSLKLSCAASGFTFSSYAMSWVRQNPEKRLEWVASISKGGNTYYPNSVKGRFTISRDNARNILYLQMSSLRSEDTALYYCARGWGDYGWFAYWGQVTLVTVSA VL: DIKMTQSPSSMYASLGERVTITCKASQDINRYLNWFQQKPGKSPKTLIYRANRLLDGVPSRFSGSGSGQDYSLTISSLDYEDMGIYYCLQYDEFPLTFGDGTKLELK
binds | – | pT82 mAb (antibody, V domains shown) VH: EVKLEESGGGLVQPGGSMKLSCVASGFTFSNYWMNWIRQSPEKGLEWVAQIRLQSDNYATRYAESVKGRFTISRDESKTSVYLQMNNLRTEDTGIYYCTGGTTYWGQGTLVTVSA VL: DIVMTQSQKFMSTSVGDRVSITCKASQNVGTAVAWYQQKPGQSPKLLIYSASIRYTGVPDRFTGSGSGTDFTLTINYMQSEDLADYFCQQFSSYPYTFGGGTKLEIK
no binding | – | hT43 mAb (antibody, V domains shown) VH: EVKLVESGGDLVKPGGSLKLSCAASGFTFRSYGMSWVRQTPDKRLEWVTTINSDGSYTYYPDSVKGRFTISRDNAKNTLYLQMSSLKSEDTAMYYCAVSWDGAMDYWGQGTSVTVSS VL: DVLVTQTPLSLPVSLGDQASISCRSSQSILHSNGNTYFEWYLQRPGQSPKLLIYKVSNRFSGVPDRFSGSGSGTDFTLKISRVEAEDLGVYYCFQGSLVPWTFGGGTKLEIK
